Measurements reported in PubChem BioAssay AID330 (DTP/NCI, 2004).
The list is a part of this screen's results and no random one: it gathers tests that were run many times, whatever their T/C, doses with no T/C, and many T/C values between a quarter and a half above the control. Further doses and runs are listed elsewhere. T/C gives the treated animals as a percentage of the vehicle group. Some doses have a count of surviving animals in place of a T/C: the source holds a T/C of zero for them, seemingly a mark for toxic or unscored doses. Some survivor counts are full or nearly so, which does not show that the dose was tolerated: survival well below the control is almost never listed, so the zero probably covers shortened survival too. Survivors were counted at the toxicity check, usually on the fifth day, unless a day is given; later deaths do not show. Schedules are NCI's codes, read here as Q, the interval in days (D) or hours (H), X, the number of doses. Some entries were tested several times; the values are given in rising order. Counts like (3×) say how often a value occurs here. Where survival is the endpoint, the PubChem record calls one and a half times the control and up active, and a quarter to a half above the control has no call in these data; cut-offs in other NCI protocols can differ.

System: P388 leukemia ip, CD2F1 mice, survival T/C
Assay: NCI In Vivo Anticancer Drug Screen. Data for tumor model P388 Leukemia (intraperitoneal) in CD2F1 (CDF1) mice
Details: T/C endpoint: median survival time, higher T/C = longer survival
[1] = dose: 100.0 mg/kg/injection, schedule: Q01DX005 (ip), vehicle: saline with Tween-80
[2] = dose: 200.0 mg/kg/injection, schedule: Q01DX005 (ip), vehicle: saline with Tween-80
[3] = dose: 100.0 mg/kg/injection, schedule: Q01DX005 (ip), vehicle: Klucel (hydroxypropylcellulose) (HPC)
[4] = dose: 200.0 mg/kg/injection, schedule: Q01DX005 (ip), vehicle: Klucel (hydroxypropylcellulose) (HPC)
[5] = dose: 240.0 mg/kg/injection, schedule: Q01DX005 (ip), vehicle: saline

SMILES: Cc1cc2c(c3c1c(=O)c1ccccc1n3C)C=CC(C)(C)O2
- survivor count (dose: 50.0 mg/kg/injection, schedule: Q01DX005 (ip), vehicle: saline with Tween-80): 5 of 6
- T/C [1]: 127 % of control
- T/C [2]: 130 % of control

SMILES: Cc1c2ccccc2cc2c1ccc1ccccc12
- T/C (dose: 17.5 mg/kg/injection, schedule: Q01DX009 (ip), vehicle: saline with Tween-80): 141 % of control
- T/C (dose: 35.0 mg/kg/injection, schedule: Q01DX009 (ip), vehicle: saline with Tween-80): 148 % of control
- T/C (dose: 70.0 mg/kg/injection, schedule: Q01DX009 (ip), vehicle: saline with Tween-80): 132 % of control

SMILES: CC(=O)OC1(C)CC2(CCCCC2)N=N1 (stereo not drawn)
- T/C (dose: 200.0 mg/kg/injection, schedule: Q01DX009 (ip), vehicle: other): 148 % of control

SMILES: C[CH2][Sn]([CH2]C)[CH2]C.C[CH2][Sn]([CH2]C)[CH2]C
- survivor count (dose: 50.0 mg/kg/injection, schedule: Q01DX005 (ip), vehicle: Klucel (hydroxypropylcellulose) (HPC)): 1 of 6
- T/C [3]: 126 % of control
- survivor count [3]: 0 of 6
- survivor count [4]: 0 of 6

SMILES: O=Cc1cc(/C(N=Nc2ccccc2C(=O)O)=N/Nc2ccccc2C(=O)O)nc2[nH]c(=O)ccc12
- survivor count [4]: 6 of 6

SMILES: Cc1cc(N2CCOCC2)ccc1N=Nc1nc2ccccc2s1
- survivor count (dose: 400.0 mg/kg/injection, schedule: Q01DX001 (ip), vehicle: saline): 6 of 6

SMILES: CN(C)c1ccc(-c2cccc[n+]2C)cc1
- survivor count (dose: 12.0 mg/kg/injection, schedule: Q01DX009 (ip), vehicle: saline): 3 of 6

SMILES: CC(NCCO)C(O)c1ccccc1 (stereo not drawn)
- survivor count (dose: 400.0 mg/kg/injection, schedule: Q01DX009 (ip), vehicle: saline): 3 of 6

SMILES: CC[N+](C)(C)c1nc(N(C)C)nc(N(C)C)n1
- survivor count (dose: 25.0 mg/kg/injection, schedule: Q01DX005 (ip), vehicle: saline): 0 of 6
- survivor count (dose: 50.0 mg/kg/injection, schedule: Q01DX005 (ip), vehicle: saline): 0 of 6
- survivor count (dose: 100.0 mg/kg/injection, schedule: Q01DX005 (ip), vehicle: saline): 0 of 6
- survivor count (dose: 200.0 mg/kg/injection, schedule: Q01DX005 (ip), vehicle: saline): 0 of 6

SMILES: Nc1nc2c(ccc3ccccc32)s1
- survivor count (dose: 400.0 mg/kg/injection, schedule: Q01DX009 (ip), vehicle: saline with Tween-80): 0 of 6 (2×) and 3 of 6

SMILES: CCOC(=O)CNC(=O)NNC(=O)OCC
- survivor count (dose: 25.0 mg/kg/injection, schedule: Q01DX009 (ip), vehicle: saline): 6 of 6

SMILES: C1=C(c2ccccc2)CC2CCC1N2Cc1ccccc1 (stereo not drawn)
- survivor count [1]: 1 of 6
- survivor count [2]: 0 of 6

SMILES: O=C1CN(c2cccc(Cl)c2)C(=O)CN1/N=C/c1cccnc1
- survivor count [1]: 6 of 6
- survivor count [2]: 6 of 6

SMILES: CCCNCC/C=C/[Si](C)(C)C
- survivor count [5]: 0 of 6

SMILES: C[C@]12CC[C@H]3[C@@H](CCC4=CC(=O)CC[C@@]43C)[C@@H]1CC[C@@H]2OC(=O)Cc1ccc(N(CCCl)CCCl)cc1
- T/C (dose: 200.0 mg/kg/injection, schedule: Q04DX003 (ip), vehicle: saline with Tween-80): 125 % of control
- T/C (dose: 600.0 mg/kg/injection, schedule: Q04DX003 (ip), vehicle: saline with Tween-80): 127 % of control

SMILES: COc1cc(N(C)c2cc(=O)n(C)c(=O)[nH]2)ccc1C
- survivor count [1]: 0 of 5
- survivor count [2]: 0 of 5

SMILES: COc1ccc(C(=O)C2C(=O)C(=O)OC2C2OC(=O)C(=O)C2C(=O)c2ccc(OC)cc2)cc1 (stereo not drawn)
- survivor count (dose: 120.0 mg/kg/injection, schedule: Q01DX005 (ip), vehicle: saline): 3 of 6
- survivor count [5]: 3 of 6

SMILES: CN1CCN(Cc2ccccc2)C(C#N)C1 (stereo not drawn)
- survivor count (dose: 200.0 mg/kg/injection, schedule: Q01DX005 (ip), vehicle: water): 0 of 6
